PubChem BioAssay AID1224830 – NIAID – 2016
Shown is an unselected part of about 18,000 deposited reagents. About 2,900 of all reagents (16%) were called active. 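Calls are made per well; low scores hint the gene aids the LPS response, high scores that it dampens it.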 Repeated entries: four replicate wells of each siRNA pool.

Assay: 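Regulators of TLR4 signalling towards TNF-alpha in macrophage-like cells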 (primary screen)
Cells: human THP-1 monocytic leukaemia cells, TNF dual-luciferase reporter clone, PMA-differentiated to macrophage-like cells
Reagent: siRNA pool against human genes, 50 nM
Timing: LPS for 4 h, given about 3 days after siRNA transfection
Challenge: bacterial LPS (TLR4 ligand), 10 ng/ml
Measured: 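TNF firefly reporter luminescence divided by renilla, normalised to the plate median, then turned into a robust z-score for each replicate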
Reading the numbers: TNF reporter robust z-score: higher = stronger TNF reporter response to LPS
Rule for the call: 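Each well counts as active if its z-score is over 2.8 or under -1.5; controls are left without a call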

| Target gene | TNF reporter robust z-score | call |
| --- | --- | --- |
| YIPF1 (GeneID 54432) | 1.35 | inactive |
| YIPF1 (GeneID 54432) | 0.22 | inactive |
| YIPF1 (GeneID 54432) | 0.39 | inactive |
| YIPF1 (GeneID 54432) | 0.48 | inactive |
| EPHB6 (GeneID 2051) | -1.18 | inactive |
| EPHB6 (GeneID 2051) | -0.98 | inactive |
| EPHB6 (GeneID 2051) | -1.29 | inactive |
| EPHB6 (GeneID 2051) | 0.4 | inactive |
| BRD10 (GeneID 158358) | 0.37 | inactive |
| BRD10 (GeneID 158358) | 1.59 | inactive |
| BRD10 (GeneID 158358) | -0.02 | inactive |
| BRD10 (GeneID 158358) | 1.27 | inactive |
| TADA1 (GeneID 117143) | -0.76 | inactive |
| TADA1 (GeneID 117143) | -0.16 | inactive |
| TADA1 (GeneID 117143) | -0.25 | inactive |
| TADA1 (GeneID 117143) | 0.53 | inactive |
| EXOC1 (GeneID 55763) | -0.14 | inactive |
| EXOC1 (GeneID 55763) | 0.22 | inactive |
| EXOC1 (GeneID 55763) | -0.34 | inactive |
| EXOC1 (GeneID 55763) | -0.2 | inactive |
| PIGS (GeneID 94005) | 0.25 | inactive |
| PIGS (GeneID 94005) | 1.1 | inactive |
| PIGS (GeneID 94005) | 1.43 | inactive |
| PIGS (GeneID 94005) | 1.27 | inactive |
| SIGLEC5 (GeneID 8778) | 0.28 | inactive |
| SIGLEC5 (GeneID 8778) | 1.39 | inactive |
| SIGLEC5 (GeneID 8778) | -0.09 | inactive |
| SIGLEC5 (GeneID 8778) | 2.54 | inactive |
| ANKRD26 (GeneID 22852) | -0.01 | inactive |
| ANKRD26 (GeneID 22852) | 0.07 | inactive |
| ANKRD26 (GeneID 22852) | 0.25 | inactive |
| ANKRD26 (GeneID 22852) | 1.13 | inactive |
| CCL2 (GeneID 6347) | -0.65 | inactive |
| CCL2 (GeneID 6347) | -0.63 | inactive |
| CCL2 (GeneID 6347) | -0.69 | inactive |
| CCL2 (GeneID 6347) | -0.75 | inactive |
| ACO1 (GeneID 48) | -0.34 | inactive |
| ACO1 (GeneID 48) | -0.06 | inactive |
| ACO1 (GeneID 48) | -0.47 | inactive |
| ACO1 (GeneID 48) | -0.1 | inactive |
| G6PD (GeneID 2539) | -1.28 | inactive |
| G6PD (GeneID 2539) | 1.38 | inactive |
| G6PD (GeneID 2539) | -0.04 | inactive |
| G6PD (GeneID 2539) | 1.36 | inactive |
| VXN (GeneID 254778) | -0.71 | inactive |
| VXN (GeneID 254778) | -0.26 | inactive |
| VXN (GeneID 254778) | -1.01 | inactive |
| VXN (GeneID 254778) | 0.8 | inactive |
| POLR3D (GeneID 661) | -0.23 | inactive |
| POLR3D (GeneID 661) | 1.45 | inactive |
| POLR3D (GeneID 661) | 1.09 | inactive |
| POLR3D (GeneID 661) | 1.83 | inactive |
| PPP6C (GeneID 5537) | -0.19 | inactive |
| PPP6C (GeneID 5537) | 0.35 | inactive |
| PPP6C (GeneID 5537) | 0.57 | inactive |
| PPP6C (GeneID 5537) | 0.55 | inactive |
| ZNF559 (GeneID 84527) | 0.02 | inactive |
| ZNF559 (GeneID 84527) | 0.7 | inactive |
| ZNF559 (GeneID 84527) | -0.96 | inactive |
| ZNF559 (GeneID 84527) | 0.43 | inactive |
| PCDHA7 (GeneID 56141) | 0.02 | inactive |
| PCDHA7 (GeneID 56141) | -0.02 | inactive |
| PCDHA7 (GeneID 56141) | 0.32 | inactive |
| PCDHA7 (GeneID 56141) | 0.68 | inactive |
| IGSF5 (GeneID 150084) | – | inactive |
| IGSF5 (GeneID 150084) | -0.67 | inactive |
| IGSF5 (GeneID 150084) | -0.8 | inactive |
| IGSF5 (GeneID 150084) | -0.42 | inactive |
| SNRPA (GeneID 6626) | -0.2 | inactive |
| SNRPA (GeneID 6626) | -0.93 | inactive |
| SNRPA (GeneID 6626) | -0.61 | inactive |
| SNRPA (GeneID 6626) | -0.03 | inactive |
| ZBTB1 (GeneID 22890) | -0.14 | inactive |
| ZBTB1 (GeneID 22890) | -0.68 | inactive |
| ZBTB1 (GeneID 22890) | 0.01 | inactive |
| ZBTB1 (GeneID 22890) | 0.16 | inactive |
| ASIC3 (GeneID 9311) | -0.3 | inactive |
| ASIC3 (GeneID 9311) | -0.35 | inactive |
| ASIC3 (GeneID 9311) | -0.52 | inactive |
| ASIC3 (GeneID 9311) | -0.13 | inactive |
| GPR83 (GeneID 10888) | -0.54 | inactive |
| GPR83 (GeneID 10888) | -0.1 | inactive |
| GPR83 (GeneID 10888) | 0.76 | inactive |
| GPR83 (GeneID 10888) | 0.61 | inactive |
| AJAP1 (GeneID 55966) | 0.88 | inactive |
| AJAP1 (GeneID 55966) | 1.13 | inactive |
| AJAP1 (GeneID 55966) | -0.11 | inactive |
| AJAP1 (GeneID 55966) | 0.11 | inactive |
| OR4P4 (GeneID 81300) | -0.79 | inactive |
| OR4P4 (GeneID 81300) | -0.98 | inactive |
| OR4P4 (GeneID 81300) | -1.34 | inactive |
| OR4P4 (GeneID 81300) | 0.2 | inactive |
| PRXL2A (GeneID 84293) | 0.06 | inactive |
| PRXL2A (GeneID 84293) | -0.18 | inactive |
| PRXL2A (GeneID 84293) | 0.2 | inactive |
| PRXL2A (GeneID 84293) | 0.23 | inactive |
| INTS4 (GeneID 92105) | 1.25 | inactive |
| INTS4 (GeneID 92105) | 1.1 | inactive |
| INTS4 (GeneID 92105) | 0.08 | inactive |
| INTS4 (GeneID 92105) | 1.53 | inactive |
| PRAG1 (GeneID 157285) | 1 | inactive |
| PRAG1 (GeneID 157285) | 1.4 | inactive |
| PRAG1 (GeneID 157285) | 0.88 | inactive |
| PRAG1 (GeneID 157285) | 1.39 | inactive |
| FLNB (GeneID 2317) | -0.09 | inactive |
| FLNB (GeneID 2317) | 0.68 | inactive |
| FLNB (GeneID 2317) | 0.62 | inactive |
| FLNB (GeneID 2317) | 0.39 | inactive |
| NFYC (GeneID 4802) | -1.02 | inactive |
| NFYC (GeneID 4802) | -1.54 | active |
| NFYC (GeneID 4802) | -1.59 | active |
| NFYC (GeneID 4802) | -1.17 | inactive |

Reagents above marked active (2):
| Target gene | TNF reporter robust z-score | call |
| --- | --- | --- |
| NFYC (GeneID 4802) | -1.54 | active |
| NFYC (GeneID 4802) | -1.59 | active |
